Data as given in PubChem BioAssay AID2551 (National Center for Advancing Translational Sciences (NCATS), 2010).
Values joined by “and” are separate entries in the source; they are usually repeats but may differ in a detail not shown here. Equal entries are not always repeated. The whole screen tested about 310,000 compounds, of which about 17,000 (5.5%) were called active. This list was built around the results that the source calls inconclusive (neither active nor inactive); the mix of calls is not that of the screen. Calls come from the whole dose curve; as a rule, active = well fitted inhibition curve with a large enough effect; inconclusive = small, poorly fitted or top-dose-only effect, or effect the other way; inactive = no such curve, though single readings can be large or run the other way. Where the call is inconclusive, the potency comes from a doubtful curve fit.

By UniProt entry, the sequences of proteins in these tests, tags left out. Where a name states a change or a piece, a line headed by the entry shows the natural chain unless it says otherwise.
UniProt P51450: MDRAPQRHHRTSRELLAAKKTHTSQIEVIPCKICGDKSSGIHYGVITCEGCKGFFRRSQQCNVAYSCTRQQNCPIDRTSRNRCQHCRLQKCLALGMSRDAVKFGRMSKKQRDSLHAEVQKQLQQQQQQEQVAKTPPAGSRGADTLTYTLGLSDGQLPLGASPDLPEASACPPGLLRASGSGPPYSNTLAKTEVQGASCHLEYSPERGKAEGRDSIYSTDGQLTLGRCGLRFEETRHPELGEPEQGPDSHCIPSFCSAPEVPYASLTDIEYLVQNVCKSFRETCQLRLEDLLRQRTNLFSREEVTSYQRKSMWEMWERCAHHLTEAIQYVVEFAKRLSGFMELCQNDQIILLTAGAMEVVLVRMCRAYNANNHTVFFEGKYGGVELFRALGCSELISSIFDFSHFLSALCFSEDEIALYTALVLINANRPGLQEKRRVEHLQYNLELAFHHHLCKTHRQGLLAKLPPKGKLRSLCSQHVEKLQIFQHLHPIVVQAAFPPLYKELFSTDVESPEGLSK

biological target: Nuclear receptor ROR-gamma (Mus musculus) (UniProt P51450); test: qHTS for inhibitors of ROR gamma transcriptional activity; settings: Drosophila S2 Gal4-RORgamma UAS-luciferase reporter, 20 h; activity change, negative = inhibition: at 53.6 µM (top of the series); note: nearly all actives have a fitted effect of over 60% in size
How it was run: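 Compounds are pin-transferred onto Drosophila Schneider cells expressing a copper-inducible Gal4–ROR gamma transactivation domain fusion. After 1 hr, copper sulfate is added to 700 uM final; luciferase is read 20 hr later.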
% is set by controls: 0 for no effect and ±100 for the full control effect; potency is the fitted concentration of half-maximal effect.

**Q.** With `Cc1ccc(-c2noc(-c3ccccc3C(=O)NCC3CCCO3)n2)cc1` (centres undefined) as the molecule, how does the Potency read?
**A.** inconclusive: 8.91 µM [activator, partial curve, poor fit]

**Q.** Which “activity change, negative = inhibition” value does the source give for `CC#CCN1c2ccccc2[C@]23C[C@@H](C(=O)OC)N(C(C)=O)C2=NC(C(=O)OC)=C(C(=O)OC)[C@H]13` here?
**A.** inactive: 17.5%

**Q.** For `COc1ccc(/C=C2/SC(=S)N(Cc3ccccc3)C2=O)cc1O`, which “activity change, negative = inhibition” value is on record?
**A.** inactive: 20.1%

**Q.** With `COC(=O)c1c(NC(=O)/C=C/C(=O)O)sc(C)c1-c1ccc(C)c(C)c1` as the molecule, how does the Potency read?
**A.** active: 4.47 µM

**Q.** Which Potency does the source give for `CC(C)c1nnc(NC(=O)Cc2ccc(Br)cc2)s1` here?
**A.** inconclusive: 17.8 µM [inhibitor, partial curve]

**Q.** How did the Potency turn out when `OCCC1CN(Cc2ccc(F)cc2)CCN1CCCc1ccccc1` (centres undefined) was run?
**A.** inconclusive: 1.26 µM [inhibitor, partial curve, poor fit]

**Q.** Which Potency does the source give for `NC(=O)c1oc2ccccc2c1NC(=O)c1nc2ccccc2s1` here?
**A.** inconclusive: 14.1 µM [inhibitor, single point]

**Q.** Which Potency does the source give for `CCOC(=O)c1nnn(CC(=O)N2N=C(c3ccccc3)CC2c2ccccc2)c1C(=O)OCC` (centres undefined) here?
**A.** active: 12.6 µM

**Q.** Which Potency does the source give for `COc1ccc(-n2nc(C(=O)NCC(=O)Nc3cccc(Cl)c3)c3ccccc3c2=O)cc1OC` here?
**A.** inconclusive: 15.8 µM [inhibitor, single point]

**Q.** Which Potency does the source give for `CC1CCc2c(C(=O)Nc3nccs3)csc2C1` (centres undefined) here?
**A.** active: 3.55 µM

**Q.** For `CC(C)NC(=O)c1ccccc1NC(=O)C1COc2ccccc2O1` (centres undefined), which Potency is on record?
**A.** inconclusive: 2 µM [activator, full curve]

**Q.** Which Potency does the source give for `S=C(NCc1ccco1)N1CCN(c2nc(-c3ccc(Cl)cc3)cs2)CC1` here?
**A.** active: 11.2 µM

**Q.** How did the Potency turn out when `Cc1c(-c2ccc(OCc3ccccc3)cc2)nc2ccccc2c1C(=O)O` was run?
**A.** inconclusive: 35.5 µM [activator, single point]

**Q.** `CCc1ccccc1N1CSC2=C(C#N)C(c3ccccc3F)CC(=O)N2C1` (centres undefined) was tested. Which Potency did it give?
**A.** inconclusive: 35.5 µM [inhibitor, single point]

**Q.** Which Potency does the source give for `c1ccc(CNC2=NCCC2)nc1` here?
**A.** inconclusive: 0.141 µM [inhibitor, partial curve, poor fit]

**Q.** For `O=C(CSc1nnc2ccccn12)c1ccc2c(c1)OCCO2`, which Potency is on record?
**A.** active: 12.6 µM

**Q.** Which Potency does the source give for `CCOC(=O)c1[nH]c2ccc(OC)cc2c1NS(=O)(=O)c1ccc(Cl)s1` here?
**A.** inconclusive: 7.94 µM [inhibitor, partial curve]

**Q.** Which “activity change, negative = inhibition” value does the source give for `c1ccc(Nc2nc(N3CCCCC3)nc(N3CCCCC3)n2)cc1` here?
**A.** inactive: -18.6%

**Q.** For `CS(=O)(=O)c1cnc(-c2ccccc2)nc1Sc1ccc(F)cc1`, which Potency is on record?
**A.** inconclusive: 7.08 µM [activator, partial curve]

**Q.** How did the Potency turn out when `O=C(NC(=S)N1CCCc2ccccc21)c1ccco1` was run?
**A.** inconclusive: 31.6 µM [inhibitor, single point]

**Q.** `Cc1ccc(/C=C/C(=O)Nc2cccc(S(=O)(=O)N3CCOCC3)c2)o1` was tested. Which Potency did it give?
**A.** inconclusive: 25.1 µM [activator, single point]

**Q.** Which “activity change, negative = inhibition” value does the source give for `COc1cc(C2c3c(-c4cc(C)cc(C)c4O)n[nH]c3C(=O)N2CCCO)cc(OC)c1OC` (centres undefined) here?
**A.** inactive: -13.5%

**Q.** Which Potency does the source give for `CCOC(=O)C1=C(C)N=C2SCCC(=O)N2C1c1sccc1C` (centres undefined) here?
**A.** inconclusive: 20 µM [activator, partial curve, poor fit]

**Q.** With `COc1ccc(C(CC(=O)N2CCCC(C)C2)c2c(O)cc(OC)cc2OC)cc1` (centres undefined) as the molecule, how does the Potency read?
**A.** active: 8.91 µM and active: 2 µM

**Q.** How did the Potency turn out when `O=C(O)c1ccc2c(=O)n3c(nc2c1)/C(=C/c1ccccc1C(F)(F)F)CCCC3` was run?
**A.** inconclusive: 35.5 µM [activator, single point]

**Q.** With `O=C(c1ccc(S(=O)(=O)Nc2cccc(C(F)(F)F)c2)cc1)N1CCOCC1` as the molecule, how does the Potency read?
**A.** inconclusive: 7.08 µM [activator, partial curve]

**Q.** With `CCC(C)(C)NC(=O)CN(C(=O)CCC(=O)Nc1nccs1)c1cccc(C)c1C` as the molecule, how does the Potency read?
**A.** inconclusive: 14.1 µM [activator, partial curve]

**Q.** With `O=C(c1cc(COc2ccc(F)cc2Cl)on1)N1CCN(c2cnccn2)CC1` as the molecule, how does the Potency read?
**A.** inconclusive: 11.2 µM [activator, partial curve]

**Q.** How did the “activity change, negative = inhibition” value turn out when `Cc1ccc(C(=O)N(CC(=O)NC2CCCCC2)c2ccccc2C)s1` was run?
**A.** inactive: -37.1%

**Q.** `CC(=O)Nc1cccc(NC(=O)c2cc(Cl)ccc2Cl)c1` was tested. Which Potency did it give?
**A.** inconclusive: 15.8 µM [activator, single point]

**Q.** How did the Potency turn out when `CCCc1cc(-c2[nH]ncc2-c2ccc3c(c2)OCCCO3)c(O)cc1OC` was run?
**A.** active: 3.55 µM

**Q.** Which Potency does the source give for `CC(C)(Cc1ccc(O)cc1)NC(=O)SCc1ccccc1` here?
**A.** inconclusive: 12.6 µM [activator, partial curve]

**Q.** How did the Potency turn out when `CCC1CCCCN1C(=S)NC1CCCCC1` (centres undefined) was run?
**A.** active: 10 µM

**Q.** Which “activity change, negative = inhibition” value does the source give for `CCc1nc2cccnc2n1-c1ccc(C(=O)O)cc1` here?
**A.** inactive: 14.3%

**Q.** For `CCOC(=O)CCCCC1=CC2=CC(=O)C(C)(O)C(=O)C2=CO1` (centres undefined), which activity change, negative = inhibition is on record?
**A.** inactive: -14.2% [at 10 µM]

**Q.** How did the Potency turn out when `CC(=O)Nc1ccc(S(=O)(=O)N2CCN(Cc3ccccc3[N+](=O)[O-])CC2)cc1` was run?
**A.** inconclusive: 31.6 µM [activator, single point]

**Q.** `NS(=O)(=O)c1ccc(NC(=O)Nc2ccc(Cl)cc2)cc1` was tested. Which Potency did it give?
**A.** inconclusive: 12.6 µM [activator, partial curve]

**Q.** With `O=C(Nc1nc(-c2ccccc2)cs1)c1ccc(=O)[nH]c1` as the molecule, how does the Potency read?
**A.** inconclusive: 15.8 µM [activator, partial curve]

**Q.** With `COc1ccc(-n2c(SCC(=O)NCC3CCCO3)nc3ccccc32)cc1` (centres undefined) as the molecule, how does the Potency read?
**A.** inconclusive: 35.5 µM [inhibitor, single point]

**Q.** How did the “activity change, negative = inhibition” value turn out when `COc1cccc(C(=O)Nc2ccc3c(c2)CCCN3C(=O)c2cccs2)c1OC` was run?
**A.** inactive: 24.7%

**Q.** For `COc1ccc(CNC(=S)Nc2ccc3nc(N4CCOCC4)cc(C)c3c2)cc1`, which Potency is on record?
**A.** active: 10 µM

**Q.** Which Potency does the source give for `FC(F)(F)c1cccc(N2CCN(C(=S)NC3CCCC3)CC2)c1` here?
**A.** inconclusive: 35.5 µM [inhibitor, single point]

**Q.** For `Cc1cc(C(=O)CSc2cccc[n+]2[O-])c(C)n1-c1ccc(Br)cc1`, which Potency is on record?
**A.** inconclusive: 1.78 µM [inhibitor, partial curve]

**Q.** Which Potency does the source give for `CC1(C)O[C@@H]2C[C@H]3[C@@H]4C[C@H](F)C5=CC(=O)CC[C@]5(C)[C@H]4[C@@H](O)C[C@]3(C)[C@]2(C(=O)CO)O1` here?
**A.** inconclusive: 28.2 µM [activator, single point]

**Q.** Which “activity change, negative = inhibition” value does the source give for `O=C(NC1CCCCC1)N1CCCC(c2nc3ccccc3[nH]2)C1` (centres undefined) here?
**A.** inactive: 5.95%

**Q.** Which Potency does the source give for `Cn1nnc(NC(=O)c2ccccc2)n1` here?
**A.** inconclusive: 0.562 µM [activator, full curve, poor fit]

**Q.** With `O=C(NNc1ccccc1[N+](=O)[O-])Nc1ccc(Cl)c(Cl)c1` as the molecule, how does the Potency read?
**A.** inconclusive: 35.5 µM [activator, single point]

**Q.** For `CC(C)(C)C(=O)Cn1ncc(Br)c(Br)c1=O`, which Potency is on record?
**A.** inconclusive: 12.6 µM [inhibitor, single point]

**Q.** With `OC(COc1ccc2c(c1)CCC2)CN1CCN(c2ccccc2F)CC1` (centres undefined) as the molecule, how does the “activity change, negative = inhibition” value read?
**A.** inactive: 29.3%

**Q.** `COc1ccc(NS(=O)(=O)c2ccc(O)c(NC(=O)c3cc4c(C)nn(-c5ccc(F)cc5)c4s3)c2)cc1` was tested. Which Potency did it give?
**A.** inconclusive: 28.2 µM [inhibitor, single point]

**Q.** For `CCCCCCCC[N+](CCCCCCCC)(CCCCCCCC)CCCCCCCC`, which Potency is on record?
**A.** active: 4.47 µM

**Q.** With `COc1cc(NC(=O)CCCSc2nc(-c3ccco3)cc(C(F)(F)F)n2)cc(OC)c1OC` as the molecule, how does the Potency read?
**A.** inconclusive: 2 µM [activator, partial curve]

**Q.** For `Cc1ccc(-n2nnnc2SCC(=O)Nc2sccc2C#N)cc1`, which Potency is on record?
**A.** inconclusive: 22.4 µM [activator, single point]

**Q.** With `CCCc1ccc(OCc2ccc(C(=O)N/N=C/c3cccnc3)o2)cc1` as the molecule, how does the Potency read?
**A.** inconclusive: 12.6 µM [activator, partial curve]

**Q.** For `CCCCOC(=O)c1ccc(NC(=O)CSCc2n[nH]c(=O)[nH]2)cc1`, which Potency is on record?
**A.** inconclusive: 5.62 µM [inhibitor, single point]

**Q.** With `CN1c2ccccc2-c2nc3ccccc3n2C1c1ccco1` (centres undefined) as the molecule, how does the Potency read?
**A.** active: 14.1 µM

**Q.** For `Cc1cccc(OCCCn2c(CO)nc3ccccc32)c1`, which Potency is on record?
**A.** inconclusive: 35.5 µM [inhibitor, single point]

**Q.** With `O=C(c1cc2c(s1)CCC2)N1CCN(c2ccccc2)CC1` as the molecule, how does the Potency read?
**A.** inconclusive: 11.2 µM [activator, single point]

**Q.** With `CSc1ccc(NS(=O)(=O)c2ccc(-n3cnnn3)cc2)cc1` as the molecule, how does the Potency read?
**A.** inconclusive: 11.2 µM [activator, partial curve]

**Q.** `Cc1ccccc1C(=O)Nc1nnc(-c2ccco2)o1` was tested. Which “activity change, negative = inhibition” value did it give?
**A.** inactive: 1.52%

**Q.** How did the Potency turn out when `N/C(=N\OC(=O)c1cccc(F)c1)c1ccccn1` was run?
**A.** inconclusive: 20 µM [inhibitor, single point]

**Q.** How did the Potency turn out when `CCOc1ccc2nc(N3CCCCCC3)sc2c1` was run?
**A.** inconclusive: 11.2 µM [inhibitor, single point]

**Q.** Which Potency does the source give for `COCc1nnc(NC(=O)c2c(-c3c(Cl)cccc3Cl)noc2C)s1` here?
**A.** inconclusive: 35.5 µM [inhibitor, single point]

**Q.** With `CC12CCC(C(=O)NCc3ccc4c(c3)OCO4)(CC1=O)C2(C)C` (centres undefined) as the molecule, how does the Potency read?
**A.** inconclusive: 7.94 µM [activator, partial curve, poor fit]

**Q.** For `CC1NC(=O)NC1CCCCCC(=O)Nc1ccc(F)cc1` (centres undefined), which “activity change, negative = inhibition” value is on record?
**A.** inactive: 21.2%

**Q.** Which “activity change, negative = inhibition” value does the source give for `Cc1cc(C)c(S(=O)(=O)N2CCOCC2)c(C)c1N(C)S(=O)(=O)c1ccccc1` here?
**A.** inactive: -31.1%

**Q.** How did the Potency turn out when `O=C1CCCN1c1ccc(S(=O)(=O)NCCOc2ccccc2)cc1` was run?
**A.** inconclusive: 12.6 µM [activator, partial curve]

**Q.** `CCOC(=O)c1ccc(N=C2C(=S)N(c3ccc(C(=O)OCC)cc3)C(=N)N2/N=C/c2ccccc2)cc1` was tested. Which Potency did it give?
**A.** inconclusive: 5.62 µM [inhibitor, single point]

**Q.** Which Potency does the source give for `COC(=O)/C=C1\S/C(=N/N=C/c2ccco2)NC1=O` here?
**A.** active: 7.08 µM
